Binding data for one substance are collected here from publication PMC5540418.

Sequences of proteins named here, by UniProt entry; tags and fusion partners are left off. Residues count along the entry.
UniProt Q9Y4K0, residues 26-774: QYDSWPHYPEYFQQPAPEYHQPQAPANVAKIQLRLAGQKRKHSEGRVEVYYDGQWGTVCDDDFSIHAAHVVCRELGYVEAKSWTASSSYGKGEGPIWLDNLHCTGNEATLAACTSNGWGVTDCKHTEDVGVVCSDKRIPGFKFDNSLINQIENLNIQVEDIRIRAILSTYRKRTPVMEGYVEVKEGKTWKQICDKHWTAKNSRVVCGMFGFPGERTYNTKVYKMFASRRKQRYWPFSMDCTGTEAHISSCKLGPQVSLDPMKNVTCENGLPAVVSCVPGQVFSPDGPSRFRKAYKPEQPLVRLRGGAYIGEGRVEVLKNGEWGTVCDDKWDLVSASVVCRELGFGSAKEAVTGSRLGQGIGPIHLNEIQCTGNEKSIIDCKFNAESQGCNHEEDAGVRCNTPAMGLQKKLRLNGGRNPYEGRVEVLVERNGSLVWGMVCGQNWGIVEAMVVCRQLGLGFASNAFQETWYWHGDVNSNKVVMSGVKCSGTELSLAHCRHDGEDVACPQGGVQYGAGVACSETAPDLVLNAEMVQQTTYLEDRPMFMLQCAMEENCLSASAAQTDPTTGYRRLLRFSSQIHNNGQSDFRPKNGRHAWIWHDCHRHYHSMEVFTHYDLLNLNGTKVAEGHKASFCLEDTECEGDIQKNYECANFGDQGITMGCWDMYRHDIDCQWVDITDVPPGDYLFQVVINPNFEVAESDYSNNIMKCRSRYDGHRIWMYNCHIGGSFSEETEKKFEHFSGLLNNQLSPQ
UniProt P48436: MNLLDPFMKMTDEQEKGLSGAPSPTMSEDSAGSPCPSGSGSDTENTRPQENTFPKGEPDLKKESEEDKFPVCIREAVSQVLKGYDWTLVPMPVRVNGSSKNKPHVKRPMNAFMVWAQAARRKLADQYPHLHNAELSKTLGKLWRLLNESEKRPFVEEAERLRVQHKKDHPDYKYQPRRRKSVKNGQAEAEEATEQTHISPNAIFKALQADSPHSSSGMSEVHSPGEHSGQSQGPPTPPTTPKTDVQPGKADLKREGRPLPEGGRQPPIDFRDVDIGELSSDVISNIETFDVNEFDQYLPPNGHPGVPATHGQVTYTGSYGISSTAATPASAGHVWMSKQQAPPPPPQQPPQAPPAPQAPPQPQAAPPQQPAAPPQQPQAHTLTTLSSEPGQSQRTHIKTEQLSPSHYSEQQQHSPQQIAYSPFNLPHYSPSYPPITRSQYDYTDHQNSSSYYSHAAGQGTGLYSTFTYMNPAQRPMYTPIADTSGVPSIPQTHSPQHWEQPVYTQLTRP

No constants are given. Whether binding was seen depends on the method and setting. In cells and extracts the contact can be indirect.

This assay addresses Lysyl oxidase like-2 (LOXL2), His-tagged, expressed from adenovirus Ad-CMV-RFP-CMV-hLOXL2-His (human) (UniProt Q9Y4K0). Kind of assay: pull-down; His-tagged LOXL2 pulled down from lysates of transduced HAC-OA cells (non-denaturing RIPA buffer) on cobalt chelate beads overnight at 4 °C (Pull-Down PolyHis Protein:Protein Interaction Kit); eluates blotted for LOXL2 and SOX9; the text calls it a co-immunoprecipitation assay.

As to “Sex determining region Y-box containing gene 9 (SOX9) (from UniProt P48436 1-509)”, the binding result is on record as “no binding”.
